Assay results from PubChem BioAssay AID179 (DTP/NCI, 2004).
pEC50, pIC50: −log10 of the molar value.

Test system: CEM cells HIV-1 protection, formazan growth assay
Test: NCI AIDS Antiviral Assay
Method in brief: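 Human CEM cells, uninfected and HIV-1-infected, exposed to five drug concentrations; growth measured by soluble formazan assay and scored as percent protection from infection, with protecting compounds retested.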

With `COc1c(O)cc2c(c1OC)-c1ccc(SC)c(=O)cc1C(NC(C)=O)CC2` (configuration not stated) as the molecule, how does the pEC50 read?
The pEC50 was < 5.21.

And the pIC50 (measured here: growth of uninfected CEM cells)?
Its pIC50 is 8.70.
